Measurements: article PMC2684828 (Analytical chemistry, 2009)

Molecular target: T1, Cytochrome P450cam (CYP101) (Pseudomonas putida, UniProt P00183)
T1 sequence (P00183 2-415): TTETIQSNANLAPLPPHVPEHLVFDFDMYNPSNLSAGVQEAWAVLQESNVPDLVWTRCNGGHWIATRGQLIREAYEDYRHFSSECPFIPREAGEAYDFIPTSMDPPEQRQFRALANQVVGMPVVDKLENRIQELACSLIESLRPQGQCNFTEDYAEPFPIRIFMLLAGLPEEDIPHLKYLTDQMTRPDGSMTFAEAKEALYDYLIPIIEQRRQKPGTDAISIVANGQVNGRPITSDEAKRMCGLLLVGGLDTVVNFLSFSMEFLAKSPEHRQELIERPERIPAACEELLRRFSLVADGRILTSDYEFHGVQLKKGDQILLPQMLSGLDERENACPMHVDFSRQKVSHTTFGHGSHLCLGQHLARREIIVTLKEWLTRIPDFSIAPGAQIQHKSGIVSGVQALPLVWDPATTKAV
Assay: enzyme/DNA film biosensor
Assay type: biochemical

Structure (SMILES): Clc1ccc(CSC(Cn2ccnc2)c2ccc(Cl)cc2Cl)cc1 (stereo not shown) [Sul., sulconazole]
- Ki: 204 µM
